## Percent effect of library compounds

Sequences of proteins named here, by UniProt entry; tags and fusion partners are left off. Residues count along the entry.
UniProt Q8IDJ8, 1-583: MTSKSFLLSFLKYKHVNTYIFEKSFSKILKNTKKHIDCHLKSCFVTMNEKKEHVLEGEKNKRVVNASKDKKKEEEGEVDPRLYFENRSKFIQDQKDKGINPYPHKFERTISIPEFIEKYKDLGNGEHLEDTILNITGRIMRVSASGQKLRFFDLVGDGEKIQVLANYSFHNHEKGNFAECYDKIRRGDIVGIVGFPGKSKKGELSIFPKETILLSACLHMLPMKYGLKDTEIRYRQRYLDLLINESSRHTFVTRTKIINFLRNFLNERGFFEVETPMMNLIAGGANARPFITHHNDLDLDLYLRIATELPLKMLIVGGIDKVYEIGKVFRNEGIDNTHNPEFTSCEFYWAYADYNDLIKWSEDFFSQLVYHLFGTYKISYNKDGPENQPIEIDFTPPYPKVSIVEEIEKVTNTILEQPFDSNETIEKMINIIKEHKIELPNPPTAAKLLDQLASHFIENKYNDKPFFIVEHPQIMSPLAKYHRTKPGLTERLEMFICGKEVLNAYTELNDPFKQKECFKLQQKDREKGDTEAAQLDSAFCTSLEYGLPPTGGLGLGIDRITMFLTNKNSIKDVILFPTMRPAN

A: 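Assay of Toxoplasma gondii numbers, read through their beta-galactosidase reporter with a colour substrate. Compounds at 10 µM. Higher reads as fewer parasites (inferred from which compounds were picked for retests). Of about 67,000 compounds tested this way, about 260 (0.38%) reached 50% or more in at least one test.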
B: 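Whole-parasite assay of Trypanosoma brucei over 72 hours; the read-out is not stated. Tested at 30 µM. The record gives no direction; compounds that gave an IC50 in retests scored well above the rest, so higher reads as stronger inhibition. Values scatter widely below zero; nearly all retest evidence comes from the higher of the two concentrations used. Size under these conditions: about 64,000 compounds, about 940 of them at 50% or above in at least one test.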
C: 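Cell assay of Leishmania donovani living inside macrophages; the read-out is not stated. Concentration: 30 µM. Higher reads as stronger inhibition (inferred: compounds with an IC50 in retests scored well above the rest). Size under these conditions: about 69,000 compounds, about 1,000 of them at 50% or above in at least one test.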
D: 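Enzyme assay of the cytosolic lysyl-tRNA synthetase in 384-well plates, read by luminescence. Target: Lysine-tRNA ligase, Plasmodium falciparum 3D7 (UniProt Q8IDJ8). Compounds at 30 µM. Direction is inferred from only a few compounds that gave an IC50; most scored high, so higher reads as stronger inhibition. Size under these conditions: about 69,000 compounds, about 49 of them at 50% or above in at least one test.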

The filed quantity is “Percent Effect” (%). How 0% and 100% were set is not recorded. Most values in the screen are low, and negative values occur. The compounds are a random part of those screened.

- COCCN1CCC(CNC(=O)C2(C#N)CCCCC2)CC1 : A: -8.283%; B: -32.51%; C: 15.05%; D: 3.098%
- CS(=O)(=O)N1CC[C@H](c2nc3ccc(C(F)(F)F)cc3[nH]2)C1 : A: -0.9009%; B: -5.82%; C: -17.93%; D: 2.654%
- CC(C)NC(=O)N1CCCC2(CCN(c3ccsc3)C2=O)C1 (centres undefined) : A: -15.05%; B: -8.356%; C: -1.622%; D: 4.139%
- O=C(NCCc1ccccn1)[C@@]12CCO[C@@H]1CCN(c1ncccn1)C2 : D: 3.311%
- CC(=O)N1N=C(c2ccccc2)OC1C(=O)NCCc1cccc(Cl)c1 (centres undefined) : A: 3.338%; B: -57.96%; C: -19.91%; D: 8.792%
- CCOC(=O)CNC(=O)N1CCOC(Cc2ccc(OC)cc2)C1 (centres undefined) : A: -0.9735%; B: -85.95%; C: 9.147%; D: 2.922%
- CC(C)C(NC(=O)N1CCN(c2ccc(Cl)cc2)CC1)C(=O)NC1CC1 (centres undefined) : A: 0.3064%; B: 53.99%; C: 44.78%; D: 4.422%
- O=C1N(Cc2ccncc2)CCC12CCCNC2 (centres undefined) : A: -12.68%; B: 9.947%; C: 12.09%; D: 2.299%
- Cn1cc(C[C@H]2[C@H](O)CCN2Cc2ccc3c(c2)OCO3)cn1 : A: -14.63%; B: -323.5%; C: 37.6%; D: 3.784%
- COc1cccc(C(=O)N2CCc3nc(C4CCCN4)ncc3C2)c1 (centres undefined) : D: 1.959%
- CCn1cc(C(=O)NCc2csc(C3CC3)n2)c(C)n1 : A: 15.51%; B: -5.133%; C: 11.72%; D: 6.003%
- CCc1n[nH]c(SCC(=O)N2C[C@@H]3CC[C@H](C2)N(CC=C(C)C)C3)n1 : D: 5.069%
- CNC(=O)[C@@H]1CN(C(=O)C(C)C)C[C@H]1c1ccnc(N2CCCC2)n1.Cl : A: -7.075%; B: -5.288%; C: -5.33%
- O=C(CC1CC1)NCc1cn2c(n1)CN(Cc1nccs1)CC2 : D: 0.3715%
- CCOCC1CN(Cc2ccc(OC)cc2)Cc2nn(C)cc21 (centres undefined) : D: -4.797%
- O=C(O)C(F)(F)F.O=C(O)C(F)(F)F.[H][C@]12CN(C)C[C@@]1(C(=O)O)CCCN(Cc1ccsc1)C2 : A: 3.437%; B: -102.4%; C: 16.75%
- COCCN(Cc1ccco1)Cc1nc(-c2ccc(C)c(F)c2)no1 : A: -3.22%; B: -84.31%; C: -10.67%; D: 2.978%
- [H][C@@]12CCCO[C@]1([H])[C@H](N1CCN(C)CC1)CN2C(=O)c1ccnnc1 : A: -1.148%; B: -8.446%; C: 15.19%
- [H][C@@]12C[C@H](C(=O)NC)[C@@]([H])(CN(C(=O)NC(C)C)C1)O2 : A: 25.53%; B: 2.951%; C: 21.05%

From ChEMBL document CHEMBL3988442, “University of Dundee, Small-Polar-MMV Screening Library” (2021).